{"source": "PubChem BioAssay AID504582", "about": "(Broad Institute, 2011)", "note": "In all, about 340,000 compounds went through this assay and about 2,300 (0.68%) were called active. Inconclusive results, whose numbers are uncertain, are shown with a selection of clear calls. No stated cut-off is given here; in the data, active means growth rescue above about 28% (passing the limit was not always enough); inconclusive means no clear call, values can overlap the other calls."}
{"assay": "rescue of yeast from PfHsp40 toxicity, primary screen, S. cerevisiae, ATP luminescence (AID 504582);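 further: yeast W303a lacking pdr1 and pdr3 grown in galactose medium; growth measured after three days at 30 °C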", "conditions": "S. cerevisiae expressing PfHsp40, growth rescue, at 12.5 µM, active compounds read high"}
{"smiles": "NC1=NC(=O)/C(=C\\c2cc([N+](=O)[O-])ccc2Cl)S1", "growth rescue": "inconclusive: 40.1%"}
{"smiles": "CCc1ccc2c(c1)cc(CN(C(=S)Nc1ccc(Cl)cc1)C1CC1)c1nnnn12", "growth rescue": "inconclusive: 29.2%"}
{"smiles": "O=c1c(-c2ccc3c(c2)OCCO3)coc2c(CN3CCOCC3)c(O)ccc12", "growth rescue": "inactive: 0.074%"}
{"smiles": "Cc1ccc(S(=O)(=O)N2CCC(C(=O)N3CCN(Cc4ccccc4)CC3)CC2)cc1", "growth rescue": "inconclusive: 26.8%"}
{"smiles": "N#CC1=C(N)Oc2c(oc(CO)cc2=O)C1c1ccsc1", "note": "(stereo not given)", "growth rescue": "inactive: -0.573%"}
{"smiles": "Cc1cc(C)c2c(N)c(C(=O)Nc3ccccc3F)sc2n1", "growth rescue": "inactive: 4.61%"}
{"smiles": "CC1=NCCc2c1[nH]c1cc(O)ccc21", "growth rescue": "inactive: -0.561%"}
{"smiles": "O=c1cc(-c2ccccc2)nc(Sc2ccc([N+](=O)[O-])cc2[N+](=O)[O-])[nH]1", "growth rescue": "inconclusive: 40.1%"}
{"smiles": "CCOCCCNC(=O)CN1CCN(S(=O)(=O)c2ccc3c(c2)CCC3)CC1", "growth rescue": "inactive: -0.796%"}
{"smiles": "O=C(Nc1cc(C(F)(F)F)ccc1Cl)C(Sc1cccc[n+]1[O-])c1ccccc1", "note": "(stereo not given)", "growth rescue": "inconclusive: 32.6%"}
{"smiles": "COc1ccc2nc(N(Cc3ccccc3)C(=O)CCNC(C)=O)sc2c1", "growth rescue": "inconclusive: 35%"}
{"smiles": "COC(=O)CSc1[nH]c2ccc(Br)cc2c1[N+](=O)[O-]", "growth rescue": "inactive: 1.19%"}
{"smiles": "COc1cccc(Nc2nc(N)nc(CCl)n2)c1", "growth rescue": "inconclusive: 42.2%"}
{"smiles": "C=CCc1cccc2cc(C(=O)NNC(=O)CC#N)c(=O)oc12", "growth rescue": "inconclusive: 36.6%"}
{"smiles": "Cc1ccc(S(=O)(=O)N(C)CCCC(=O)n2nc(C)cc2C)cc1", "growth rescue": "inconclusive: 45.5%"}
{"smiles": "Cc1ccc(SCc2nc3ccccc3n2CC(=O)Nc2c(C)cccc2C)cc1", "growth rescue": "inconclusive: 27.9%"}
{"smiles": "CCN1CCN(Cc2ccc(NC(=O)c3ccc(C)c(/C=C/c4cnc(Nc5cc(N6CCNCC6)nc(C)n5)cn4)c3)cc2C(F)(F)F)CC1", "growth rescue": "inconclusive: 59.7%"}
{"smiles": "Cc1c(C2(O)CCCCC2)[nH]c2cc(C(F)(F)F)ccc12", "growth rescue": "inconclusive: 54.5%"}
{"smiles": "COc1cc(S(=O)(=O)NC2CCCCC2C)ccc1F", "note": "(stereo not given)", "growth rescue": "active: 98.3%"}
{"smiles": "Cc1ccc(-n2c(-c3ccc(Br)cc3)c[n+]3c2CCc2ccc4cccnc4c2-3)cc1", "growth rescue": "inactive: 9.21%"}
{"smiles": "N=C(N)c1ccc(N)cc1", "growth rescue": "active: 67.3%"}
{"smiles": "CCCS(=O)(=O)c1cnc(C2COc3ccccc3O2)nc1N", "note": "(stereo not given)", "growth rescue": "inactive: -3.2%"}
{"smiles": "CC(C)(C)c1csc(NC(=O)c2ccccc2O)n1", "growth rescue": "inconclusive: 76.2%"}
{"smiles": "CC(C)CCC(C(=O)NC(C)c1ccccc1)C(=O)NC(C)c1ccccc1", "note": "(stereo not given)", "growth rescue": "inconclusive: 38.6%"}
{"smiles": "CSC1=NC(=O)/C(=C\\c2cccc3ccccc23)S1", "growth rescue": "inconclusive: 27.3%"}
{"smiles": "Oc1cccc(-c2nc3ccccc3s2)c1", "growth rescue": "inconclusive: 28.8%"}
{"smiles": "CCCC(=O)c1ccc(N2CCN(C(=O)c3ccc(Br)cc3)CC2)c(F)c1", "growth rescue": "inconclusive: 57.5%"}
{"smiles": "Cc1c(C(=O)Nc2ccc3c(c2)OCCO3)sc2nc(-c3ccccc3)cn12", "growth rescue": "active: 145%"}
{"smiles": "Nc1cc(Cl)nc(N/N=C/c2c(O)ccc3ccccc23)n1", "growth rescue": "inconclusive: 79.3%"}
{"smiles": "O=C(NCCCCc1ccccc1)c1ccc(Br)cc1", "growth rescue": "inconclusive: 63.1%"}
{"smiles": "CCc1ccc([C@@H]2CC=C(C(=O)O)[C@H](c3ccccc3)N2S(=O)(=O)c2ccc(C)cc2)cc1", "growth rescue": "inconclusive: 53.3%"}
{"smiles": "CC(=O)Nc1ccc(S(=O)(=O)NCCc2cn3nc(C)c(C)nc3n2)cc1", "growth rescue": "inactive: 1.5%"}
{"smiles": "Cc1ccc(-n2c(SCC(=O)NCCN3C(=O)CSC3=O)nnc2-c2ccccc2)cc1C", "growth rescue": "inconclusive: 36.4%"}
{"smiles": "O=c1cc(CSc2nnc3ccccn23)c2c(ccc3ccccc32)o1", "growth rescue": "inconclusive: 25.2%"}
{"smiles": "O=C(Cc1coc2ccc3ccccc3c12)NCc1ccccc1", "growth rescue": "inactive: 1.93%"}
{"smiles": "CCC1=NN2C(=N)/C(=C\\c3cccn3-c3c(C)cccc3C)C(=O)N=C2S1", "growth rescue": "inconclusive: 40.8%"}
{"smiles": "CS(=O)(=O)N1CCc2cc(C(=O)N3CCN(c4cccc(Cl)c4)CC3)ccc21", "growth rescue": "inactive: 0.415%"}
{"smiles": "Cc1ccccc1N1CCN(Cc2nc(Cc3ccccc3F)no2)CC1", "growth rescue": "inconclusive: 29.3%"}
{"smiles": "O=C(NCc1ccncc1)c1ccc2nc(Cc3ccccc3F)oc2c1", "growth rescue": "inconclusive: 33.6%"}
{"smiles": "COc1ccc(Nc2ccc3c(c2)=NC2(CCCCC2)[N+]=3[O-])cc1", "growth rescue": "inactive: 0.0035%"}
{"smiles": "COc1cccc(-c2sc3ccccc3c2-c2ccc(OCCN3CCCC3)cc2)c1", "growth rescue": "inconclusive: 98%"}
{"smiles": "COc1ccc(/C=C2\\Sc3ccc(C(=O)NCC4CCCO4)cc3N(C)C2=O)cc1", "note": "(stereo not given)", "growth rescue": "inconclusive: 128%"}
{"smiles": "N#Cc1c(Nc2ccccc2)[n+]([O-])c2ccc(Cl)cc2[n+]1[O-]", "growth rescue": "active: 68.7%"}
{"smiles": "CCO/C=C1\\C(=O)N(c2ccccc2)C(=O)c2ccccc21", "growth rescue": "inconclusive: 26.7%"}
{"smiles": "Cc1cc(Cl)ccc1C(=O)C1CCCN(C(=O)c2cncs2)C1", "note": "(stereo not given)", "growth rescue": "active: 377%"}
{"smiles": "CCCSc1nnc(NC(=O)Nc2ccccc2OC)s1", "growth rescue": "inactive: -0.7%"}
{"smiles": "Cc1ccc(S(=O)(=O)Nc2ccccc2C(=O)Nc2nc(-c3ccc(F)cc3)cs2)cc1", "growth rescue": "inconclusive: 28.4%"}
{"smiles": "Cc1ccc(C)c(NC(=S)N(C2CCCCC2)C(C)c2cccnc2)c1", "note": "(stereo not given)", "growth rescue": "inconclusive: 75.4%"}
{"smiles": "COc1ccc(NC(=O)CN2CC(c3ccccc3)CC2=O)cc1OC", "note": "(stereo not given)", "growth rescue": "inconclusive: 53.6%"}
{"smiles": "O=c1c2ccccc2nc(N/N=C/c2c(O)ccc3ccccc23)n1O", "growth rescue": "inconclusive: 29.3%"}
{"smiles": "CC(C)(C)OC(=O)N1CCC(c2c(C(=O)N3CCN(C(=O)c4ccco4)CC3)cnn2-c2ccc(F)cc2)CC1", "growth rescue": "inconclusive: 35.7%"}
{"smiles": "CCOc1ccc(NC2=CC(=O)C(=O)c3ccccc32)cc1", "growth rescue": "inactive: 12.3%"}
{"smiles": "COc1cccc(CNCCc2c[nH]c3ccccc23)c1OCc1ccc(F)cc1", "growth rescue": "inactive: 1.14%"}
{"smiles": "Cc1ccc(NS(=O)(=O)c2cc(-c3cc(C)no3)ccc2C(C)C)nc1", "growth rescue": "inactive: 1.33%"}
{"smiles": "CC1(C)CC(=O)C(=CN2CCN(C(=O)c3ccco3)CC2)C(=O)C1", "growth rescue": "inconclusive: 41.4%"}
{"smiles": "CCOc1cccc(C(=O)Nc2cccc(C(C)=O)c2)c1", "growth rescue": "inconclusive: 34.4%"}
{"smiles": "COc1ccc(Sc2nc(-c3ccccn3)ncc2OC)cc1", "growth rescue": "inconclusive: 133%"}
{"smiles": "O=[N+]([O-])c1ccc(Sc2cccc[n+]2[O-])c2nonc12", "growth rescue": "active: 683%"}
{"smiles": "COc1cccc2c(=O)n(CC(=O)N3CCCCCC3)ccc12", "growth rescue": "inactive: -0.593%"}
{"smiles": "O=C(O)c1ccc(N/N=C/c2cccc(C(F)(F)F)c2)cc1", "growth rescue": "active: 63.6%"}
{"smiles": "O=S(=O)(c1ccc(Oc2ccc(F)c(Cl)c2)nc1)N1CCOCC1", "growth rescue": "inactive: 0.668%"}
{"smiles": "O=C(CCCN1C(=O)/C(=C\\c2ccccc2)SC1=S)Nc1ccccc1O", "growth rescue": "inconclusive: 39.7%"}
{"smiles": "CC(C)NC(=O)COc1ccc(/C=N/NS(=O)(=O)c2ccccc2)cc1", "growth rescue": "inconclusive: 39.4%"}
{"smiles": "Cc1ccc2c(CC(=O)NNC(=O)c3ccccc3O)coc2c1", "growth rescue": "inconclusive: 34.9%"}
{"smiles": "Cc1ccc(NC(=O)c2ccccc2)cc1", "growth rescue": "inactive: -1.43%"}
{"smiles": "C/C(=C\\C(=O)OCCCCCCCCC(=O)O)C[C@@H]1OC[C@H](C[C@@H]2O[C@H]2[C@@H](C)[C@H](C)O)[C@@H](O)[C@H]1O", "growth rescue": "inactive: -1.4%"}
{"smiles": "CSC(=S)NN=C(C)c1cccc(C)n1", "growth rescue": "active: 64%"}
{"smiles": "COc1cc(C(=O)OCC(=O)NC(N)=O)cc(CN2C(=O)c3ccccc3C2=O)c1OC", "growth rescue": "inconclusive: 35.5%"}
{"smiles": "S=C(NCCc1ccccc1)Nc1ccc(Nc2ccccc2)cc1", "growth rescue": "inconclusive: 88.8%"}
{"smiles": "Cc1onc(NC(=O)c2ccc([N+](=O)[O-])o2)c1Br", "growth rescue": "inconclusive: 28.7%"}
{"smiles": "CCc1cc2c(=O)[nH]c(-c3ccccn3)nc2s1", "growth rescue": "inconclusive: 109%"}
{"smiles": "Cc1ccc(NC2=C(N3CCOCC3)C(=O)c3ccccc3C2=O)cc1", "growth rescue": "inactive: -0.347%"}
{"smiles": "CCc1nc2ccc(C(=O)N3CCN(c4cccc(C(F)(F)F)c4)CC3)cc2nc1CC", "growth rescue": "inconclusive: 26.7%"}
{"smiles": "COc1cccc(C(=O)NCCS(=O)(=O)N2CCN(C(=O)c3ccco3)CC2)c1", "growth rescue": "inconclusive: 28.1%"}
{"smiles": "COc1ccc(OC)c(C(=O)c2coc3cc(Br)c(O)c(Br)c23)c1", "growth rescue": "inconclusive: 135%"}
{"smiles": "O=[N+]([O-])c1ccc(N2CCN(CCO)CC2)c2ncccc12", "growth rescue": "inactive: -0.863%"}
{"smiles": "CCOCc1c(C(=O)Nc2ccc3nc(N4CCOCC4)sc3c2)oc2ccccc12", "growth rescue": "inconclusive: 34.7%"}
{"smiles": "Nc1ncnc2c(C3OC(CO)C(O)C3O)scc12", "note": "(stereo not given)", "growth rescue": "active: 145%"}
{"smiles": "COc1cc2cc(C(c3nnnn3C3CCCC3)N3CCCCC3)c(=O)[nH]c2cc1OC", "note": "(stereo not given)", "growth rescue": "inactive: -0.909%"}
{"smiles": "Cc1c(Cl)cccc1NC(=O)CSc1sc2c(O)cc(=O)[nH]c2c1C#N", "growth rescue": "inconclusive: 28.5%"}
{"smiles": "Nc1ccc(N)c(C(=O)O)c1", "growth rescue": "inactive: 0.319%"}
{"smiles": "CC1(c2ccc(Cl)cc2)NC(=O)N(CC(=O)N2CCc3ccccc32)C1=O", "note": "(stereo not given)", "growth rescue": "inactive: -0.766%"}
{"smiles": "Cc1cccc(NC(=S)NNC(=O)c2cc3c(s2)CCC(C)C3)c1C", "note": "(stereo not given)", "growth rescue": "active: 30.6%"}
{"smiles": "COc1cc(CNCc2cccnc2)ccc1OCC(=O)NC(C)(C)C", "growth rescue": "inconclusive: 38%"}
{"smiles": "CSCCC(NC(=O)COc1ccccc1)C(=O)OCCOc1ccc(Br)cc1", "note": "(stereo not given)", "growth rescue": "inactive: -0.924%"}
{"smiles": "CC(=O)Nc1nc(SCc2ccc(Cl)cc2Cl)n[nH]1", "growth rescue": "inactive: 0.582%"}
{"smiles": "CCCCS(=O)(=O)NC1=NCN(Cc2ccco2)CN1", "growth rescue": "inconclusive: 33.6%"}
{"smiles": "COc1cc2c(cc1OC)C(COc1cc(C)cc(C)c1)N(C(C)=O)CC2", "note": "(stereo not given)", "growth rescue": "inactive: 0.115%"}
{"smiles": "Cc1nn(CC(=O)Nc2ccc3c(c2)nc(CN2CCCC2)n3C)c(=O)c2ccccc12", "growth rescue": "inconclusive: 38%"}
{"smiles": "CCN(CC)c1ccc(/C=N/NC(=O)c2cccc(S(=O)(=O)Nc3ccccc3OC)c2)c(O)c1", "growth rescue": "active: 105%"}
